Experimental data from article PMC4241993.
Results are given in words; binding and its absence hold for the method and conditions named. In cells and extracts the contact can be indirect. Some binding calls cover weakened binding; strength is not graded here. Tags and fused reporters may be left off the sequences shown.

Assays:
[1] = target: T1, ΔC150-KIAA1199 mutant (FLAG) (human (cDNA from CaSki cells)) (UniProt Q8WUJ3); assay: co-IP; cells transfected with KIAA1199-FLAG wild type or ΔN/ΔC mutants; anti-FLAG IP (anti-HA as negative control) followed by anti-EGFR blot
T1 sequence: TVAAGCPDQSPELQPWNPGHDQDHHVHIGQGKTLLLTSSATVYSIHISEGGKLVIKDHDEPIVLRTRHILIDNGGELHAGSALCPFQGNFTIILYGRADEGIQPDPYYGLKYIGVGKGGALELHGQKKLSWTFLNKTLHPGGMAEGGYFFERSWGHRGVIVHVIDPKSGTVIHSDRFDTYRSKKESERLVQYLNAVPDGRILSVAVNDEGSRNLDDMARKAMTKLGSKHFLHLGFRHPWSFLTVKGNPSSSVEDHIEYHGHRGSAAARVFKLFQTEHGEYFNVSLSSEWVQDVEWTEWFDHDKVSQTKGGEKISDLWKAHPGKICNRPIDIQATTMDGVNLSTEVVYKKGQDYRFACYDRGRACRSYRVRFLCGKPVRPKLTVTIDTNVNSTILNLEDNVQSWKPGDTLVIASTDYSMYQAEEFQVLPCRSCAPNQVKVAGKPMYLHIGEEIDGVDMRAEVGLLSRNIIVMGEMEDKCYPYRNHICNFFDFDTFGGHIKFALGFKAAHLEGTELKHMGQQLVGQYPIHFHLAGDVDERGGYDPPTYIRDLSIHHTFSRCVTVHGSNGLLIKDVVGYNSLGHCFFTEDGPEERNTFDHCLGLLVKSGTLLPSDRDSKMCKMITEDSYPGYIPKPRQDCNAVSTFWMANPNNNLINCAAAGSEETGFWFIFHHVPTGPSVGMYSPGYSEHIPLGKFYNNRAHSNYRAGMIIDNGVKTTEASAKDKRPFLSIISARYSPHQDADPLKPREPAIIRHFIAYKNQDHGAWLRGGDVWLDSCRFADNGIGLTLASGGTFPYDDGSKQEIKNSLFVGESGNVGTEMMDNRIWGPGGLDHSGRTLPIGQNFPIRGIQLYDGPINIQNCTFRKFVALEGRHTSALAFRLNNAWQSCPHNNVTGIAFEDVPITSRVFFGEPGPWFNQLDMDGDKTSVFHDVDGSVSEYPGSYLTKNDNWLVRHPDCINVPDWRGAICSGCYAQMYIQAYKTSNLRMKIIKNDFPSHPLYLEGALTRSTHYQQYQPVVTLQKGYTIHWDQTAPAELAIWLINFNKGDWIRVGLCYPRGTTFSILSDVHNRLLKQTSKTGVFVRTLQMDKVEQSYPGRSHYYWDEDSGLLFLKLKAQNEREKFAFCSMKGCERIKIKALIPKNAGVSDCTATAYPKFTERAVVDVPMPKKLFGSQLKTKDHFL

[2] = target: T2, ΔC100-KIAA1199 mutant (FLAG) (human (cDNA from CaSki cells)) (UniProt Q8WUJ3); assay: as above
T2 sequence: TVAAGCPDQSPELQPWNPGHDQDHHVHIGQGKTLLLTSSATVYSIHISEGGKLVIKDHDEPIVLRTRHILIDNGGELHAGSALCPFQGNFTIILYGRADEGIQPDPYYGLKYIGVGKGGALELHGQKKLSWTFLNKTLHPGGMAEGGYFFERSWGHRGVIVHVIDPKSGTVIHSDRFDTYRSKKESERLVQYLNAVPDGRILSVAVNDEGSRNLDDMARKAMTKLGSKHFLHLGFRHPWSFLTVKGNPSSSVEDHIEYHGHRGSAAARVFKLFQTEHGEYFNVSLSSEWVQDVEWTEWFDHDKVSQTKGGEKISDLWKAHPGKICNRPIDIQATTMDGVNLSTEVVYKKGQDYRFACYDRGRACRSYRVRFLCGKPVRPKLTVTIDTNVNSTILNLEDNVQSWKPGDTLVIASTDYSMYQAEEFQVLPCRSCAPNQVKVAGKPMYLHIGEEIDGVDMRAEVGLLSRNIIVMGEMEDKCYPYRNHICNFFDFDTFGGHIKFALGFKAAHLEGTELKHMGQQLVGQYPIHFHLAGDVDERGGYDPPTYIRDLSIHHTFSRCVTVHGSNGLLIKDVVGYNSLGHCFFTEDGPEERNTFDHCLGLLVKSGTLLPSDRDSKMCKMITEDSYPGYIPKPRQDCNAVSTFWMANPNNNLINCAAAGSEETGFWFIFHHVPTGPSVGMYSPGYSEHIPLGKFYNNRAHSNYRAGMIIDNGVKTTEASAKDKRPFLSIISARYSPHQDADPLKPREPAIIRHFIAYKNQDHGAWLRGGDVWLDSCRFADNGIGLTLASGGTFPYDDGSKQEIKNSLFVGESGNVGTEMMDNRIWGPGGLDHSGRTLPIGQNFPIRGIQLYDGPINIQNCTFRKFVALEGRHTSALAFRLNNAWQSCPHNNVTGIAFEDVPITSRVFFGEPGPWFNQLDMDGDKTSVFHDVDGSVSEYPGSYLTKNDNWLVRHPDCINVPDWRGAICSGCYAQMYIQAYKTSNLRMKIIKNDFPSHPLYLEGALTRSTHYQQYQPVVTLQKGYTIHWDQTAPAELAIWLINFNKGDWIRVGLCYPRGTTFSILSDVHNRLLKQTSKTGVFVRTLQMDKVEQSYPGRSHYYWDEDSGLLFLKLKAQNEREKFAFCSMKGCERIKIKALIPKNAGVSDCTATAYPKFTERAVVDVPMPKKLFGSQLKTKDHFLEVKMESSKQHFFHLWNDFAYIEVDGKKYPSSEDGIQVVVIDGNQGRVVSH

binding [1]: binds | binding [2]: binds
Substance: EGFR (in extracts of transfected cells, Figure 5e) (from UniProt P00533 25-1210) (receptor)
